The list shows a part of the results. Shown are side measurements of this screen, not its main read-out; they come without a call. Compounds called inactive in the main read-out are mostly missing here. The note in brackets gives the kind of curve behind each potency; many fits are weak.
Test: qHTS Assay for Lipid Storage Modulators in Drosophila S3 Cells;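 for cell number change: cells counted by Cell Tracker Red CMTPX staining in the red channel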
Settings: BODIPY lipid droplet fluorescence, 18-24 h; for cell number change: measured here: cell count max response, cells fed with added oleic acid
Outline: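 Drosophila S3 cells loaded with oleic acid (400 uM, as added) and compounds at several concentrations; lipid droplets imaged by 488-nm laser-scanning cytometry, 500–530 nm intensity and object ratio to cell channel. Percent activity normalized to 20 uM Triacsin C.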

[1] = measured here: cell number channel AC50, cells fed with added oleic acid
[2] = measured here: lipid fluorescence (Fed channel) AC50, cells fed with added oleic acid

Row | Structure (SMILES) | cell number change [%] | AC50 [1] | AC50 [2]
1 | C=C1CSc2nc(=O)c3c(C)c(C)sc3n21 | 1.68 | – | –
2 | O=C(NCc1ccc2c(c1)OCO2)C(c1ccco1)N(C(=O)c1csnn1)c1ccccc1 (stereo unspecified) | 39.6 | 2.31 µM [rising, partial curve] | 1.03 µM [rising, single point]
3 | COC(=O)c1ccc(Nc2cc(C)nc3ccc(C)cc23)cc1 | -30.5 | 29.1 µM [falling, single point] | 25.9 µM [falling, partial curve, poor fit]
4 | COc1ccc(CCC(=O)N(c2nnc(-c3cccnc3)s2)C(C)C)cc1 | 25.5 | 6.51 µM [rising, partial curve, poor fit] | –
5 | CC1CCCC(N2CCN(C(=O)c3ccc([N+](=O)[O-])cc3)CC2)C1 (stereo unspecified) | -5.03 | – | –
6 | CN1C(=O)/C(=C2\SC(N)=NC2=O)c2ccccc21 | – | – | 16.4 µM [falling, single point]
7 | CC(C)(C)c1ccc(C(=O)NC(=S)N2CCCCCC2)cc1 | -18.7 | 3.66 µM [rising, single point] | 29.1 µM [falling, single point]
8 | COC(=O)c1ccc(OC(=O)CN2C(=O)c3ccccc3C2=O)cc1 | 20.3 | – | –
9 | CC(C)=CC(=O)Nc1ccccc1Br | – | – | 6.51 µM [falling, single point]
10 | Cc1cccc2c1OCC/C2=N\NC(=O)COc1ccccc1Cl | 11.2 | – | 0.82 µM [falling, full curve, poor fit]
11 | CC12C=CC(=O)C=C1CCC1C3CCC(O)(C(=O)CO)C3(C)CC3OC312 (stereo unspecified) | -4.94 | – | 0.092 µM [falling, full curve, poor fit]
12 | S=c1[nH]nc(C2CCCCC2)n1/N=C/C=C/c1ccccc1 | -25.6 | – | 10.3 µM [falling, partial curve, poor fit]
13 | O=C(CSc1ncnc2nc[nH]c12)c1ccc2ccccc2c1 | -24.6 | – | 23.1 µM [falling, single point]
14 | CCc1ccc(/C=C2/Sc3ccccc3N(CC(=O)NCCCN3CCOCC3)C2=O)cc1 | – | 4.61 µM [rising, single point] | –
15 | COc1ccc2nc(SCC(=O)NC3CCCCC3C)[nH]c2c1 (stereo unspecified) | – | – | 32.6 µM [falling, partial curve]
16 | Cc1ccc2cc(CCNC(=O)c3cccs3)c(=O)[nH]c2c1C | -4.37 | – | 6.51 µM [falling, single point]
17 | COc1ccccc1N1CCN(S(=O)(=O)CCNC(=O)c2cc(OC)c(OC)c(OC)c2)CC1 | 91 | 29.1 µM [rising, single point] | 29.1 µM [rising, single point]

Some values from above.
For AC50 [2], COC(=O)c1ccc(Nc2cc(C)nc3ccc(C)cc23)cc1 shows 25.9 µM [falling, partial curve, poor fit]
For AC50 [2], Cc1ccc2cc(CCNC(=O)c3cccs3)c(=O)[nH]c2c1C shows 6.51 µM [falling, single point]

— PubChem BioAssay AID2685 (National Center for Advancing Translational Sciences (NCATS), 2010)
